# From article PMC12040169 (PLOS Biology, 2025)
# The other results are listed elsewhere or left out.
# System: T1, CTL2-GFP (C. trachomatis L2/434/Bu, GFP-expressing)
# T1 construct: L2/434/Bu, GFP-expressing
# Design: species or system HeLa; Intracellular C. trachomatis growth in HeLa cells, bulk GFP fluorescence relative to DMSO
# Conditions: bulk GFP, single well; 28.5 h, 10 µM; inhibitor
row,Structure (SMILES),% of control remaining [%]
1,COc1ccnc(N2CCN(C(=O)c3ccc(C)n3C)CC2)n1 [CBK305803],131.637
2,c1ncn(C2CCCCC2)c1C1CCCCC1 [CBK016758],112.633
3,O=C(c1nccc2ccccc12)N1CCc2ccccc21 [CBK200405],72.545
4,CC(C)(C)NC(=O)C1C2CCC3(CC(=O)c4ccccc4O3)C21 (stereo not drawn) [CBK284821],147.976
5,CCOc1cccc2cc(C(=O)N3CCN(Cc4ccccc4)CC3)c(=O)oc12 [CBK270259C],146.391
6,COc1cc(CN2CCN(c3ccccn3)CC2)cc(Br)c1O [CBK025770],137.786
7,COc1ccccc1C1C(C(=O)c2sc(C)nc2C)=C(O)C(=O)N1CCCN1CCOCC1 (stereo not drawn) [CBK266592],116.393
8,Cc1ccc(S(=O)(=O)Nc2cccc3ccccc23)c([N+](=O)[O-])c1 [CBK267381],145.679
9,c1ccc(CN2CCN(Cc3c[nH]c(-c4ccccc4)n3)CC2)cc1 [CBK074775],106.687
10,O=C(O)/C=C/c1cccc(NS(=O)(=O)c2ccc(C(=O)O)cc2)c1 [CBK262262],100
11,CSc1ccc(-n2ncc(-c3ccc(F)cc3F)n2)cc1 [CBK112728],125.777
12,COc1cccc(NC(=O)Cn2cc(OC)c(=O)cc2CN2CCOCC2)c1 [CBK294430],154.679
13,COc1cccc2c1cc(C(=O)NCc1cc(C3CC3)[nH]n1)n2C [CBK283282],152.463
14,CCOC(=O)N1CCN(c2cc3[nH]c(=S)[nH]c3cc2F)CC1 [CBK288444],126.89
15,CCNc1nccnc1-c1cccc(O)c1 [CBK088593],161.651
16,Cc1ccc(SCCNC(=O)COc2ccc(Cl)cc2Cl)cc1 [CBK263976],100
17,O=c1c2ccccc2n2c(=O)[nH]nc2n1-c1ccccc1 [CBK288352],99.8629
18,Cc1cc(C(=O)CSc2ccc(Cl)nn2)c(C)n1C1CC1 [CBK305512],147.861
19,CC(C)NC(=O)Nc1ccc(C(=O)N(CCC#N)Cc2ccco2)cc1 [CBK305999],129.503
20,Cc1nn(CC(=O)NCc2ccc(C(=O)O)cc2)c(C)c1[N+](=O)[O-] [CBK268967],92.7429
21,Cn1nnnc1Sc1cc(=O)n(C)c(=O)n1C [CBK011072],72.1019
22,Cn1cc(CC(=O)Nc2nc3c(cc2C#N)CCCC3)cn1 [CBK306436],106.811
23,COc1ccc(Cl)cc1Nc1ncnc(N)n1 [CBK288195],178.505
24,CC(=O)N1CCC(C(=O)NC(=O)NCCc2ccccc2)CC1 [CBK034851],100
25,Cc1ccc(-c2ncc(OCc3cccs3)nc2N)cc1C [CBK145146],98.4302
26,CN1CCCN(CC(CC(=O)NCc2ccccc2)C(=O)O)CC1 (stereo not drawn) [CBK286791],139.358

row,Structure (SMILES),% of control remaining [%]
1,CCc1cc(Br)ccc1S(=O)(=O)NC1CCOC1=O (stereo not drawn) [CBK044385],98.1873
2,COc1ccc(-c2cncc(N(C)CCN(C)C)n2)cc1 [CBK037832],123.97
3,CS(=O)(=O)NC1CCN(CCc2ccc(F)c(F)c2)C1 (stereo not drawn) [CBK305078],132.401
4,Cc1c(Cl)cccc1S(=O)(=O)Nc1nc(-c2cccc([N+](=O)[O-])c2)cs1 [CBK000994],136.141
5,CCCn1c(C)cc2cc(NC(=O)C(C)n3ccnc3)ccc21 (stereo not drawn) [CBK281547],114.114
6,COc1ccc(CCNC(=O)N(CCC#N)C2CCCCC2)cc1 [CBK156375],95.9259
7,O=S(=O)(c1ccccc1)c1ccc(N2CCNCC2)cc1 [CBK018452],126.381
8,N#Cc1cccc(CSc2nnc(Nc3ccccc3)n2-c2ccccc2)c1 [CBK266040],86.0345
9,Nc1cc(=O)[nH]c(=O)n1CCc1c[nH]c2ccccc12 [CBK288190],140.755
10,Nc1cccc(-c2cn([C@H]3C[C@@H](O)[C@@H](CO)O3)c(=O)[nH]c2=O)c1 [CBK201262],119.567
11,c1coc(-c2ccc3c(c2)COC2(CCN(CCc4ccc5c(c4)OCO5)CC2)O3)c1 [CBK061057],146.04
12,CCOC(=O)N1CCC(NS(=O)(=O)c2cccc3cccnc23)CC1 [CBK045453],107.467
13,Cc1n[nH]cc1CN(C)c1cc([C@H]2C[C@@H](N)C2)nc(C2CC2)n1 [CBK307544],61.5354
14,Cc1cc(C)n(CC(=O)N2CCNC(=O)C2c2ccccc2Cl)n1 (stereo not drawn) [CBK306421],127.1
15,COc1ccc2c(c1)nc1n2CCC1O (stereo not drawn) [CBK115449],105.64
16,O=C(N/N=C\c1ccc(-c2ccc(Cl)c(Cl)c2)o1)C1COc2cc3ccccc3cc2O1 (stereo not drawn) [CBK262834],114.032
17,Cc1ccc2nc(-c3ccccc3)c(CC(=O)O)c(C(=O)O)c2c1 [CBK265128],126.341
18,O=C(Nc1ccc2c(c1)OCO2)C1CCN(S(=O)(=O)c2ccc(Oc3ccccc3)cc2)CC1 [CBK269648],116.953
19,COc1cc(C2C(C(=O)c3cccs3)=C(O)C(=O)N2Cc2cccnc2)cc(OC)c1OC (stereo not drawn) [CBK264874],114.603
20,CC(=O)Nc1ccc(S(=O)(=O)Nc2ccc(C(=O)N3CCN(C)CC3)cc2)cc1 [CBK050406],148.281
21,COC(=O)Nc1ccc(S(=O)(=O)Oc2ccc(C)cc2-n2nc3ccccc3n2)cc1 [CBK262183],98.5885
22,COc1ccc2[nH]cc(CCNC(=O)CCC(=O)O)c2c1 [CBK116605],125.505
23,O=C(c1ccco1)N1CCN(c2ccc(/C=C/c3ccccc3)cn2)CC1 [CBK037701],71.0727
24,Cc1cc(Br)ccc1C(=O)Nc1ccc2cc[nH]c2c1 [CBK160046],129.688
25,C=CCn1c(-c2sc(NC(=O)c3[nH]c4c(c3C)C(=O)CC(C)(C)C4)nc2C)n[nH]c1=S [CBK297757],128.767
26,COc1ccc(-c2nc(O)cc(C(F)(F)F)n2)cc1 [CBK003515],136.667

row,Structure (SMILES),% of control remaining [%]
1,CCn1c2cc(C)sc2c2cnn(CC(=O)N3CCCC3)c(=O)c21 [CBK284168],97.1674
2,CCc1cc(C(=O)OC)c(NC(=O)CC2NCCNC2=O)s1 (stereo not drawn) [CBK266990],179.396
3,CC(Sc1nc2ccc(F)cc2c(=O)[nH]1)C(=O)N1CCOCC1 (stereo not drawn) [CBK305958],120.48
4,COC(=O)CN1N=C(C(C)(C)C)Cn2c(cc3sccc32)C1=O [CBK284177],98.4324
5,CC(C)NC(=O)NC[C@H]1C[C@@H]2CC[N@]1C[C@@H]2CN1CCN(c2ccccn2)CC1 [CBK289112],102.374
6,CN(C)C(=O)COc1cccc(Nc2nc(Br)cn3ccnc23)c1 [CBK037989],233.62
7,COc1ccccc1NC(=O)c1c(NC(=O)c2cc([N+](=O)[O-])ccc2Cl)sc2c1CCCC2 [CBK263827],120.418
8,Cn1c(=O)n(C)c2cc(CNc3ccc(N4CCOCC4)c(C(=O)O)c3)ccc21 [CBK269463],134.226
9,COC(=O)CNC(=O)c1nc(SC)ncc1Cl [CBK057651],107.181
10,COc1ccc(Cl)cc1NC(=O)CC(C)(C)CC(=O)O [CBK001236],119.119
11,COc1ccc(Oc2cc(Cl)nc(N)n2)cc1 [CBK261771],107.965
12,O=C(O)c1oc2ccccc2c1CN1CCN(c2ccccc2)CC1 [CBK286948],136.137
13,COc1cc(CNc2cc(-c3ccc(N4CCOCC4)cc3)ncn2)cc(OC)c1OC [CBK091174],174.919
14,COc1ccc(F)cc1-c1cccc(CC2(C(=O)NCc3cccs3)CCOCC2)c1 [CBK285543],109.581
15,Cc1ccc(NC(=O)c2cncc(-c3ccc(C(=O)N4CCOCC4)cc3)c2)c(O)c1 [CBK160208],135.983
16,Cc1ccc(-c2nn3c(C)nnc3s2)cc1NC(=O)c1ccc([N+](=O)[O-])o1 [CBK267247],113.716
17,COc1cc2c(cc1OC)CN(C(=O)CSc1nc(-c3cccnc3)ccc1C#N)CC2 [CBK267464],138.89
18,Cn1c(=O)c(-c2ccccc2)nc2ccccc21 [CBK016192],115.345
19,Cc1cc(N2CCCC2)c(F)cc1CN1CCC(O)C(C)C1 (stereo not drawn) [CBK282963],153.289
20,CC1CCCN(C(=O)c2cc(-c3ccccn3)n[nH]2)C1C (stereo not drawn) [CBK283146],126.364
21,CS(=O)(=O)N(CC(=O)Nc1ccc2c(c1)OCO2)c1ccc(Oc2ccccc2)cc1 [CBK263989],120.666
22,CN(C)CCCNC(=O)C1CCCCN1S(=O)(=O)c1ccc(C(C)(C)C)cc1 (stereo not drawn) [CBK200070],133.393
23,CC(C)NC(=O)CN1CCC(Oc2nccnc2OCc2ccc(Cl)c(Cl)c2)CC1 [CBK153791],96.6276
24,C/C(=C\c1ccccc1)CN1CCC(C(=O)N2CCN(Cc3ccc4c(c3)OCO4)CC2)CC1 [CBK264327],130.149
25,COc1cc(OC)nc(C(NC(=O)C2CCN(CCc3c[nH]c4ccccc34)CC2)c2ccccc2C)n1 (stereo not drawn) [CBK148101],83.0397
26,COc1cc(OC)nc(CN2C(=O)C3(CC(=O)N(CCCN4C(=O)c5ccccc5C4=O)C3=O)c3cc(C)ccc32)n1 (stereo not drawn) [CBK075992],126.213
